# Assay results: the supplement of paper PMC11732987, “Enantioselective OTUD7B fragment discovery through chemoproteomics screening and high-throughput optimisation” (Communications Chemistry, 2025)
# By UniProt entry, the sequences of proteins in these tests, tags left out. Where a name states a change or a piece, a line headed by the entry shows the natural chain unless it says otherwise. Residues count along the entry.
# UniProt Q14254, 56-76: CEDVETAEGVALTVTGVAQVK
# UniProt P22570: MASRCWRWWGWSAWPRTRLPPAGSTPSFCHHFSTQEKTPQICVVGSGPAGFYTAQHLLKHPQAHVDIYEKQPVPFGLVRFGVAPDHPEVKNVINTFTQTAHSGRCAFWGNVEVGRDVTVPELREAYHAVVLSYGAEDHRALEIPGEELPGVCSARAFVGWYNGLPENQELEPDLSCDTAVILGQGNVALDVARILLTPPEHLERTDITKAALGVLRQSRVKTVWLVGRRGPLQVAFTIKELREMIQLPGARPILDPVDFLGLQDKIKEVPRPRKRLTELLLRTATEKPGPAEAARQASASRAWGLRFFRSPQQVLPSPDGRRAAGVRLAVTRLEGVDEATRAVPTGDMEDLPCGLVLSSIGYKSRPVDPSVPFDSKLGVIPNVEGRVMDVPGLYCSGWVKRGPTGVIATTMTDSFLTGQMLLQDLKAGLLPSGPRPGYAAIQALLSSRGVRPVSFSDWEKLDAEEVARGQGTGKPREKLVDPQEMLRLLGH
# UniProt Q9Y2H6: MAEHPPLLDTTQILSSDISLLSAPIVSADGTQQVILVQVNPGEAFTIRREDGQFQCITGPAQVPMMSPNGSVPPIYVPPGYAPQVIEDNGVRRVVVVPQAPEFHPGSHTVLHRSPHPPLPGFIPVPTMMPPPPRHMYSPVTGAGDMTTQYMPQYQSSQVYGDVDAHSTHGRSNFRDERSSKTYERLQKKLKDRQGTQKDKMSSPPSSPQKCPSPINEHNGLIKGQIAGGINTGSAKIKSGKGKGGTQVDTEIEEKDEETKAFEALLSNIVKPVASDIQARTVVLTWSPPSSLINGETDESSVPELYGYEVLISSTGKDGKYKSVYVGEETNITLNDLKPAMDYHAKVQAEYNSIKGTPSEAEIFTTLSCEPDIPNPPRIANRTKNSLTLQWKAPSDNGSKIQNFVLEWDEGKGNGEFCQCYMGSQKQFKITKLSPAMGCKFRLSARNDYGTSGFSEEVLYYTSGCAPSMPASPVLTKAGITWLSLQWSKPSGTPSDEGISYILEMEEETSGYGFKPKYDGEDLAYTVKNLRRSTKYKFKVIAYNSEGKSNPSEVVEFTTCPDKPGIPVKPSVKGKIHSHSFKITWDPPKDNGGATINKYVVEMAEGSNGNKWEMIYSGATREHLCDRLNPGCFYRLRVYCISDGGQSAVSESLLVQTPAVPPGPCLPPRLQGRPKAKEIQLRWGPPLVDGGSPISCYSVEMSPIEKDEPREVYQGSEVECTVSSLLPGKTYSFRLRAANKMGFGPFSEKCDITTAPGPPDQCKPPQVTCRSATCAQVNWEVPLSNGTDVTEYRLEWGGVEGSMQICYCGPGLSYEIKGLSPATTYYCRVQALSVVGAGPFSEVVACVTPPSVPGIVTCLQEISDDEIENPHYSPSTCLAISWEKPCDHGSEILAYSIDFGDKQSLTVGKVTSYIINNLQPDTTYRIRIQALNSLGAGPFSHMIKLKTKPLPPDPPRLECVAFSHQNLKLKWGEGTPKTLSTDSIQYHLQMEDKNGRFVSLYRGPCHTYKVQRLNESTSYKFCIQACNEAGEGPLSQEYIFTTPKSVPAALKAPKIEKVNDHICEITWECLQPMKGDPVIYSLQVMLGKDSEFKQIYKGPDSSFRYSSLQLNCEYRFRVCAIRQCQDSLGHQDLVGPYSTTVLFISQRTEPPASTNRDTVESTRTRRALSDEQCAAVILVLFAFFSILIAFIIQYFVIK
# UniProt Q8IY81, 188-209: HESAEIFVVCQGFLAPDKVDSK
# UniProt O14976: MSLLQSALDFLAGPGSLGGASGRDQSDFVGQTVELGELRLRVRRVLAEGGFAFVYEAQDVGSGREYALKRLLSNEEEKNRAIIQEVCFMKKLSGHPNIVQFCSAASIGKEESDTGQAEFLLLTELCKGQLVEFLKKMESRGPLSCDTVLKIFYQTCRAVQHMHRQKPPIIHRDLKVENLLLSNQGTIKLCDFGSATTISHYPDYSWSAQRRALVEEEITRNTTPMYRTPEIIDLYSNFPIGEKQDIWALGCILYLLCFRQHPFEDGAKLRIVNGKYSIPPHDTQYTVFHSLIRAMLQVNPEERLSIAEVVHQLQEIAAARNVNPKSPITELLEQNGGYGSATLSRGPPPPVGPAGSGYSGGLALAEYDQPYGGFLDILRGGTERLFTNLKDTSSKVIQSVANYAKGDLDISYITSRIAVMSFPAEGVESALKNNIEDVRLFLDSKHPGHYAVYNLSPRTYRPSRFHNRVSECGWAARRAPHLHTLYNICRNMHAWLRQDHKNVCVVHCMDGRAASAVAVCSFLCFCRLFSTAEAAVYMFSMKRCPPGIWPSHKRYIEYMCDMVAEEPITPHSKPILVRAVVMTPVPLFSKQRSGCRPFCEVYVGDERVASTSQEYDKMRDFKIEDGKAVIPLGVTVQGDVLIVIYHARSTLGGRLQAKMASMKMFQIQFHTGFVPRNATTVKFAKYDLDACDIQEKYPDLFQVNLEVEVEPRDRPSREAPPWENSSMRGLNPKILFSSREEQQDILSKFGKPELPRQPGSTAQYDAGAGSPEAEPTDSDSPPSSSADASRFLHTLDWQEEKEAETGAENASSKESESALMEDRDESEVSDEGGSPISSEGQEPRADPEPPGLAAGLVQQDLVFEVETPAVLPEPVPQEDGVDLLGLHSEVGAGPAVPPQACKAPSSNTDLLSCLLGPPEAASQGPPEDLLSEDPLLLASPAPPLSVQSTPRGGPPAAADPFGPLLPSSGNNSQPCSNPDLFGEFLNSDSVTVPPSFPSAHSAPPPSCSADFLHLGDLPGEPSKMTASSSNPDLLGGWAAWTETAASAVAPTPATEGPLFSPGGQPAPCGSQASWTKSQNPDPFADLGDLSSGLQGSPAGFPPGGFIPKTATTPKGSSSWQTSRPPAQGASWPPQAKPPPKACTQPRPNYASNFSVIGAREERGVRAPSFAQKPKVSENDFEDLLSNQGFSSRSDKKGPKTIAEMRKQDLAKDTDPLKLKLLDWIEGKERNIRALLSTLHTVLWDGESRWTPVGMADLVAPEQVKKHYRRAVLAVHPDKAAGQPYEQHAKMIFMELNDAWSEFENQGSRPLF
# UniProt O43716: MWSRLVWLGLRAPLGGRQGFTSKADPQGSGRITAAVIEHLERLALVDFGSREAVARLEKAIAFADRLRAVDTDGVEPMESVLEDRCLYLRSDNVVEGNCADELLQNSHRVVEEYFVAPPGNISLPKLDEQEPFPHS
# UniProt Q53R41: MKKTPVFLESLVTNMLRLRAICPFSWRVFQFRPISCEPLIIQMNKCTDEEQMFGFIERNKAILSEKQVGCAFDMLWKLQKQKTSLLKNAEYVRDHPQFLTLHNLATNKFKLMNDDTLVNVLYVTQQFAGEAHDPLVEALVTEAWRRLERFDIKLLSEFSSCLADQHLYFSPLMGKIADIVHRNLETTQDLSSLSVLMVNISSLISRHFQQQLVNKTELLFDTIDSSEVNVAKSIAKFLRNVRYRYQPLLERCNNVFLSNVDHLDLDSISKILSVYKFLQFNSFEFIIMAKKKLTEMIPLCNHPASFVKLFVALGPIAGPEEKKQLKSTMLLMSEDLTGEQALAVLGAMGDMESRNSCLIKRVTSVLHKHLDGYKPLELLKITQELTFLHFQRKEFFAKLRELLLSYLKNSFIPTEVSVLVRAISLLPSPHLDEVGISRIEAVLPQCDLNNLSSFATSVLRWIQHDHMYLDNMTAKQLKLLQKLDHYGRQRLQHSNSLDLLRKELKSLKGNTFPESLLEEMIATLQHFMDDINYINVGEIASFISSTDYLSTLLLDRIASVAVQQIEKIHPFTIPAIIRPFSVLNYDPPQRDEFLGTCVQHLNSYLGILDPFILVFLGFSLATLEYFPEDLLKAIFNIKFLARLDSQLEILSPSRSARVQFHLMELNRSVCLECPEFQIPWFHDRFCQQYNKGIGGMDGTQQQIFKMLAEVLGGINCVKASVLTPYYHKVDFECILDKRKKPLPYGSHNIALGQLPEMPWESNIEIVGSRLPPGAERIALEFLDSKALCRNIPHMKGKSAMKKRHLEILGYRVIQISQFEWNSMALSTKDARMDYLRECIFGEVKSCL
# UniProt Q5T1M5: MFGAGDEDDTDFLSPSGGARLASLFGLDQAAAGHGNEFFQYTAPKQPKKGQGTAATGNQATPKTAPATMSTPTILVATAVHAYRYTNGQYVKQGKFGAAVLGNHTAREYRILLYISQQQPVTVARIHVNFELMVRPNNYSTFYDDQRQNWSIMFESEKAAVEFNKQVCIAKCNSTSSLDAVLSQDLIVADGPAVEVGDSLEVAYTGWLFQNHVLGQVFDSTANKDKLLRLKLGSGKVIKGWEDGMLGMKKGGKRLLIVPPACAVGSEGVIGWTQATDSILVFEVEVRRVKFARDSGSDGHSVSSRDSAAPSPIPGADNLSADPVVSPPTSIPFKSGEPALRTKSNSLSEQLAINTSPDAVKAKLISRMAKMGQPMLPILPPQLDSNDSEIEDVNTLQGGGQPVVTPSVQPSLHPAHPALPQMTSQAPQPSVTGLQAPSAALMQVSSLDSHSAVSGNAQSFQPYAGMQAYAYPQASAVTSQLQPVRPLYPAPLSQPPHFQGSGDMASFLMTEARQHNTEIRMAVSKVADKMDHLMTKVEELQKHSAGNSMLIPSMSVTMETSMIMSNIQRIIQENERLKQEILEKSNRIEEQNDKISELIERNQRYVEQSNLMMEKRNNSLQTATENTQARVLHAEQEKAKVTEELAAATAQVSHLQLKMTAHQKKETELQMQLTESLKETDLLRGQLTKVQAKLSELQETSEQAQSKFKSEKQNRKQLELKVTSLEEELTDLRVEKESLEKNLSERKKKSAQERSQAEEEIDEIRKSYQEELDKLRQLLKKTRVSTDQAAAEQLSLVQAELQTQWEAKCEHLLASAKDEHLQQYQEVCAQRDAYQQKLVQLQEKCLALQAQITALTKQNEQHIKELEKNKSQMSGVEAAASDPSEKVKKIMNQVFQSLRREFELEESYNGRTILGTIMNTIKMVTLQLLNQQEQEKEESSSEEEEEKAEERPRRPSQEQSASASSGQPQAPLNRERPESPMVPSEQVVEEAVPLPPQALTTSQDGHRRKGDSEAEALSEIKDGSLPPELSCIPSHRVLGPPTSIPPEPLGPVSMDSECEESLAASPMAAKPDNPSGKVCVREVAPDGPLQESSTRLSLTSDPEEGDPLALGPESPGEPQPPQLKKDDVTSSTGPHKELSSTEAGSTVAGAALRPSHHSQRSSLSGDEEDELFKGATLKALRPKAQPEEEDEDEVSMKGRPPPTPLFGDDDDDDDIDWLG
# UniProt Q9UK99: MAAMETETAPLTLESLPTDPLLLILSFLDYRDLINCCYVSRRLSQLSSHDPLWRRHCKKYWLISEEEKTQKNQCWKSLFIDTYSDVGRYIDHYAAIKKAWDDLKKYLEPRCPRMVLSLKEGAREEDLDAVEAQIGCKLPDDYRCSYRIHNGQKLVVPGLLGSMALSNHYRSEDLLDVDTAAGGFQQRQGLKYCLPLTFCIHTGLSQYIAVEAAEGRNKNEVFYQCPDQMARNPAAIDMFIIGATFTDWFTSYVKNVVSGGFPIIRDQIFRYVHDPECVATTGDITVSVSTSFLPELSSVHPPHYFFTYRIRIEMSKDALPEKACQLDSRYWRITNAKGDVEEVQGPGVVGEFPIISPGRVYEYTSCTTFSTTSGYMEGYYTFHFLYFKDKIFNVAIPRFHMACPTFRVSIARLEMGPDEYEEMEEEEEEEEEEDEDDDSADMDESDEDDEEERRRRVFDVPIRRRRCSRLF
# UniProt P22455: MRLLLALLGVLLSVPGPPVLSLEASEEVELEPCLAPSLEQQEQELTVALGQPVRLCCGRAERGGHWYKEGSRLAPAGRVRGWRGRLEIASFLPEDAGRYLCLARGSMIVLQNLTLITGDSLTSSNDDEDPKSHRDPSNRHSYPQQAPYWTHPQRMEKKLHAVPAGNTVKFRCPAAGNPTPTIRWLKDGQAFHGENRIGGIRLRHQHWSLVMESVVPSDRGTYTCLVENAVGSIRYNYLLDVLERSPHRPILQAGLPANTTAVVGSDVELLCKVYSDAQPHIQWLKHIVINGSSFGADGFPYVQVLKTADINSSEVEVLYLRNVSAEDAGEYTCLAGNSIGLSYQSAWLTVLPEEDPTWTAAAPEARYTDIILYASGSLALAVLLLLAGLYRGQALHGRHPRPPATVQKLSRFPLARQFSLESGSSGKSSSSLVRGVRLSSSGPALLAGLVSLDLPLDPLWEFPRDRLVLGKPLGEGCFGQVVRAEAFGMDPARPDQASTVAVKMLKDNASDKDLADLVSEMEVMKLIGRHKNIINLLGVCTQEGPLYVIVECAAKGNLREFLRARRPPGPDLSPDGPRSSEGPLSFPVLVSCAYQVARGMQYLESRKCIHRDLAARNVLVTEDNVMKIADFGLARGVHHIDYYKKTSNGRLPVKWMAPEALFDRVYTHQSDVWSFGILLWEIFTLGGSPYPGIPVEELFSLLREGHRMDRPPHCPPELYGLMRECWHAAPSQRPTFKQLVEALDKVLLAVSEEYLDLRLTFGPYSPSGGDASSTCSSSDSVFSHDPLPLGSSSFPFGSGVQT
# The list shows a part of the results. The data scatter; read single values as rough.
# Compound: ClCC(=O)N[C@H]1CCCc2ccccc12
# Assay: log2 mean competition ratio of IA-DTB cysteine labelling (DMSO/compound) (log2 ratio); higher = stronger cysteine engagement by compound
# Details: 50 µM; treatment time: 4 h; cell line lysate: HEK293T
# Method: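 IA-DTB competitive cysteine chemoproteomics in HEK293T RIPA lysate. Lysates were treated with compound 29 or 30 at 50 or 200 µM for 4 h, then IA-DTB (500 µM, 1 h), trypsin-digested, NeutrAvidin-enriched and analysed by diaPASEF. Competition ratio = intensity DMSO / intensity compound (n=4 treated, n=64 DMSO); binding: mean log2 CR ≥ 1 and p ≤ 0.05 plus QC filters. Target is the cysteine site.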
row,Target,log2 mean competition ratio
1,FLOT2 C56 (UniProt Q14254),-0.0877
2,FDXR C105 (UniProt P22570),0.125
3,FHOD3 C347,-0.288
4,FNDC3A C211 (UniProt Q9Y2H6),-0.448
5,GART C41,-0.178
6,FHOD1 C164 (UniProt Q9Y613),-0.308
7,GAPVD1 C1160 (UniProt Q14C86),-0.251
8,FTSJ3 C197 (UniProt Q8IY81),-0.14
9,FTO C171 (UniProt Q9C0B1),0.203
10,FTSJ1 C295 (UniProt Q9UET6),-0.0305
11,GAK C691 (UniProt O14976),-0.139
12,GATC C99 (UniProt O43716),-0.124
13,FLI1 C83 (UniProt Q01543),-0.0475
14,FASTKD1 C838 (UniProt Q53R41),0.473
15,FKBP15 C1031 (UniProt Q5T1M5),-0.0302
16,FOCAD C657 (UniProt Q5VW36),-0.425
17,FBXO3 C136 (UniProt Q9UK99),-0.241
18,FGFR4 C172 (UniProt P22455),-0.215
19,FASN C1227,-0.405
20,GAB2 C406 (UniProt Q9UQC2),-0.263

# Same assay, conditions: 200 µM; treatment time: 4 h; cell line lysate: HEK293T
row,Target,log2 mean competition ratio
1,FLOT2 C56 (UniProt Q14254),-0.34
2,FDXR C105 (UniProt P22570),0.0456
3,FHOD3 C347,-0.0572
4,FNDC3A C211 (UniProt Q9Y2H6),0.139
5,GART C41,-0.0479
6,FHOD1 C164 (UniProt Q9Y613),-0.0586
7,GAPVD1 C1160 (UniProt Q14C86),-0.315
8,FTSJ3 C197 (UniProt Q8IY81),-0.108
9,FTO C171 (UniProt Q9C0B1),0.0158
10,FTSJ1 C295 (UniProt Q9UET6),0.0945
11,GAK C691 (UniProt O14976),-0.132
12,GATC C99 (UniProt O43716),0.0164
13,FLI1 C83 (UniProt Q01543),0.36
14,FASTKD1 C838 (UniProt Q53R41),0.00804
15,FKBP15 C1031 (UniProt Q5T1M5),-0.132
16,FOCAD C657 (UniProt Q5VW36),-0.149
17,FBXO3 C136 (UniProt Q9UK99),-0.0551
18,FGFR4 C172 (UniProt P22455),0.158
19,FASN C1227,-0.0443
20,GAB2 C406 (UniProt Q9UQC2),0.269
